The target of test [1] is T1, ornithine decarboxylase from AA8 cells (Cricetulus griseus, UniProt P14019).
T1 sequence (P14019 1-455): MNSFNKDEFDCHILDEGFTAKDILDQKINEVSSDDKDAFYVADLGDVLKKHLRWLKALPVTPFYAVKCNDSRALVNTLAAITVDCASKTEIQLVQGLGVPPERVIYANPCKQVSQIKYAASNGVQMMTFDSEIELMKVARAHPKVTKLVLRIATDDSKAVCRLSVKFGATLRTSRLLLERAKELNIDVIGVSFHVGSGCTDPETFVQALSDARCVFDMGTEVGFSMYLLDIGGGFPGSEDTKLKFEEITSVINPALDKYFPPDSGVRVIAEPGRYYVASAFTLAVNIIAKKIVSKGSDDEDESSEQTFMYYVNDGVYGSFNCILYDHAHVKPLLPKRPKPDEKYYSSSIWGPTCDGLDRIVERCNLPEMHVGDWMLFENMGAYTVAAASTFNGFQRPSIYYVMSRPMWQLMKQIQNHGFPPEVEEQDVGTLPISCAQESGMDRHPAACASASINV
The settings on record: read-out: apparent Michaelis constant of ornithine decarboxylase; enzyme from AA8 cells.

For test [2], the system named is ornithine decarboxylase from multidrug resistance T19 cells. The note with it: read-out: apparent Michaelis constant of ornithine decarboxylase; enzyme from T19 cells.

The structures appear in SMILES notation.

One molecule from patent publication US5455161A, “Method for the monitoring of multiple anticancer drug resistance” (priority 1992, dated 1995) can be followed below.

In the case of `NCCC[C@H](N)C(=O)O` [L-ornithine], the Km in test [1] was found to be 48 µM; in test [2], 46 µM.
